Percent effect of library compounds

Results are given as percent effect. The controls that fix the scale are not given in the record; negative values are as filed. The compounds are a random part of those screened.

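Whole-parasite assay of Trypanosoma brucei over 72 hours; the read-out is not stated. Tested at 30 µM. Direction is inferred from retests: higher values go with stronger inhibition. Values scatter widely below zero; nearly all retest evidence comes from the higher of the two concentrations used. About 64,000 compounds were tested under these conditions; 1.5% (about 940) showed 50% or more at least once.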

| SMILES | effect |
|---|---|
| `CC(=O)N1CCCC(Cc2cnc(-n3ccnc3)cn2)C1` (stereo not shown) | -24.65% |
| `CC(=O)Nc1ccc(C(=O)NCCCn2cccc2)cc1` | -30.43% |
| `Cc1ccc(CC(=O)N2CCN(CC(C)O)CC2)cn1` (stereo not shown) | 7.605% |
| `CC(Oc1cc(Cl)cc(Cl)c1)C(=O)NCCC(=O)N(C)C` (stereo not shown) | -21.36% |
| `Cl.FC(F)Oc1ccc(CNCc2cc(Cl)c3c(c2)OCO3)cc1` | -18.07% |
| `COCCNC(=O)c1cc2c(s1)CCN2C(=O)c1ccccc1` | 61.44% |
| `O=C(O)C(F)(F)F.c1coc(CN2CCC3(CCOCC3COCC3CC3)CC2)c1` (stereo not shown) | -6.77% |
| `CCCn1cc(-c2cc(-c3ccoc3)c(C#N)c(N)n2)c(C)n1` | -1.944% |
| `CN(C)CC(=O)N1CCCC1c1cncc(Oc2ccc(F)cc2)n1` (stereo not shown) | -19.56% |
| `CCSc1ncc(CN2CCN(c3nc(C)cnc3C)CC2)cn1` | -6.26% |
| `O=C(Cc1ccc(S(=O)(=O)C(F)F)cc1)N1CCCC1` | -32.94% |
| `COc1ccc(C2Nc3ccccc3C3=NCCCN32)cc1OC` (stereo not shown) | -8.154% |
| `NC(=O)C1CN(C(=O)Cc2cccnc2)CCN(C2CCOCC2)C1` (stereo not shown) | 2.108% |
| `Cn1ncnc1CNC(=O)N(CCCO)C1CCc2ccccc21` (stereo not shown) | 16.12% |
| `O=C(O)C(F)(F)F.O=C(O)C(F)(F)F.[H][C@@]12CCCO[C@]1([H])[C@H](N(C)C)CN2Cc1ccc(C)o1` | -54.9% |
| `O=C(O)C(F)(F)F.O=C(O)C(F)(F)F.[H][C@@]12CCN(Cc3ccsc3)C[C@]1([H])[C@@H](CN1CCOCC1)OC2` | -43.8% |
| `O=C(c1cccn1Cc1cccs1)N1CCCC1Cn1cccn1` (stereo not shown) | -0.8643% |
| `COc1ccc(-c2noc(CN3CC(n4cc(C)cn4)C3)n2)cc1` | 12.27% |
| `O=C(NCCc1ccc2c(c1)OCO2)C1CCCN(Cc2ccco2)C1` (stereo not shown) | -5.669% |
| `CCn1ncc2c1CCCC2NCc1ccc(C)s1` (stereo not shown) | 16.95% |
| `O=C(NCCS(=O)(=O)N1CCN(c2ncccn2)CC1)C1CC1` | -9.541% |
| `COC(=O)c1ccc(NC(=O)CCc2ccco2)cc1` | -110.8% |
| `Cn1c(C(F)(F)F)nn(CCNC(=O)c2ccccn2)c1=O` | -11.28% |
| `Cc1ncc(C)c(N2CCC(Cc3ccc(Cl)cc3)(C(=O)O)CC2)n1` | -3.551% |
| `CC(NC(=O)NCCNc1cccc(F)c1C#N)c1cccs1` (stereo not shown) | -54.57% |
| `CCc1ccccc1Nc1noc2c1CN(C(=O)CCOC)CC2` | -32.73% |
| `Cc1cnn(CC2CCCCN2C(=O)c2ccccc2-n2cccn2)c1` (stereo not shown) | -0.5546% |
| `Cc1nc(CN(C)S(=O)(=O)c2ccccc2Br)no1` | -39.15% |
| `CCN1C(=O)C(C)(C)c2cc(NC(=O)c3ccn(CC)n3)ccc21` | -47.65% |
| `CC(C)c1cnc(CN2CCCC(c3ccn[nH]3)C2)o1` (stereo not shown) | -43.23% |
| `CCN1CCC(N2CCN(c3cc(-c4nc(C)no4)ccn3)CC2)CC1` | -12.76% |
| `CN(C)CC1CN(Cc2csc(C3CCCC3)n2)CCO1` (stereo not shown) | 24.73% |
| `Cc1n[nH]c(C)c1-c1cc(-c2cccc(O)c2)nc(N)c1C#N` | 20.97% |
| `[H][C@@]12CCCO[C@]1([H])[C@H](NC(=O)CC1CC1)CN(Cc1ccc(OC)cc1)C2` | 16.81% |
| `Fc1cccc(CN2CCC[C@H](Cn3nnc(-c4ccccn4)n3)C2)c1` | -22.29% |
| `CCOc1ccc2[nH]c(=O)c(CN3CCCCC3C)cc2c1` (stereo not shown) | -21.07% |
| `CC1CCCCN1CCNC(=O)c1ccn(-c2ccccc2)n1` (stereo not shown) | -23.6% |
| `CN(CCc1ccccc1)C1CCCN(Cc2nccn2C)C1` (stereo not shown) | 38.9% |
| `Cc1ccc(F)cc1NC(=O)CCn1cncn1` | -54.43% |
| `Cc1noc(CN(C)C(=O)c2n[nH]c(N)c2-c2ccccc2)n1` | -19.52% |
| `CN(C)CCN(Cc1ccsc1)C(=O)C1=NNC(=O)CC1` | -13.12% |
| `CN(C)CCN1C2(CCN(Cc3nccs3)C2)c2ccccc2S1(=O)=O.O=C(O)C(F)(F)F.O=C(O)C(F)(F)F` (stereo not shown) | -461.1% |
| `O=C(O)C(F)(F)F.[H][C@@]12CN(C(=O)c3ccoc3C)C[C@@]1([H])N(Cc1cccnc1)C(=O)CO2` | -13.1% |
| `CC(C)CNC(=O)CNC(=O)NC(c1nccs1)C1CC1` (stereo not shown) | -14.44% |
| `O=C(C1CCOC1)N1CCN(Cc2ccncc2)c2ncccc2C1` (stereo not shown) | -6.541% |
| `O=C(O)C(F)(F)F.[H][C@@]12CCN(S(C)(=O)=O)C[C@]1(C(=O)NCCc1ccccn1)CCO2` | -43.43% |
| `O=S(=O)(c1ccccc1)N1CCCC(Cn2cncn2)C1` (stereo not shown) | -0.7817% |
| `CCOC(=O)c1cnn(C2CCN(C(=O)CC(C)(C)C)CC2)c1N` | -5.832% |
| `C[C@@H]1CN(CC(C)(C)N2CCOCC2)C[C@@]1(O)C1CC1` | -12.87% |

For reference, 5 entries once more:

CN(C)CCN1C2(CCN(Cc3nccs3)C2)c2ccccc2S1(=O)=O.O=C(O)C(F)(F)F.O=C(O)C(F)(F)F (stereo not shown) gave -461.1%.
CN(C)CC1CN(Cc2csc(C3CCCC3)n2)CCO1 (stereo not shown) gave 24.73%.
CC(Oc1cc(Cl)cc(Cl)c1)C(=O)NCCC(=O)N(C)C (stereo not shown) gave -21.36%.
O=C(Cc1ccc(S(=O)(=O)C(F)F)cc1)N1CCCC1 gave -32.94%.
CN(C)CC(=O)N1CCCC1c1cncc(Oc2ccc(F)cc2)n1 (stereo not shown) gave -19.56%.

Measurements from “University of Dundee, Small-Polar-MMV Screening Library” (2021), ChEMBL document CHEMBL3988442.